From ChEMBL document CHEMBL4316593 (Eur J Med Chem, 2019)
Further values from the same series stand in other lists.

Columns and labels:
Assay type in all cases: cell-based
Settings in all cases: U-87MG ATCC
[1] = Inhibition of RTK/PI3K/AKT/mTOR signaling in human U87 cells assessed as up regulation of MICALCL gene expression at cytotoxic IC50 measured after 48 hrs relative to control
[2] = Inhibition of RTK/PI3K/AKT/mTOR signaling in human U87 cells assessed as down regulation of CACYBP gene expression at cytotoxic IC50 measured after 48 hrs relative to control
[3] = Inhibition of RTK/PI3K/AKT/mTOR signaling in human U87 cells assessed as up regulation of tRNA isopentenyltransferase 1 gene expression at cytotoxic IC50 measured after 48 hrs relative to control
[4] = Inhibition of RTK/PI3K/AKT/mTOR signaling in human U87 cells assessed as down regulation of RBM48 gene expression at cytotoxic IC50 measured after 48 hrs relative to control
[5] = Inhibition of RTK/PI3K/AKT/mTOR signaling in human U87 cells assessed as down regulation of AHR gene expression at cytotoxic IC50 measured after 48 hrs relative to control
[6] = Inhibition of RTK/PI3K/AKT/mTOR signaling in human U87 cells assessed as down regulation of TAF3 gene expression at cytotoxic IC50 measured after 48 hrs relative to control
[7] = Inhibition of RTK/PI3K/AKT/mTOR signaling in human U87 cells assessed as up regulation of cytochrome p450 oxidoreductase gene expression at cytotoxic IC50 measured after 48 hrs relative to control
[8] = Inhibition of RTK/PI3K/AKT/mTOR signaling in human U87 cells assessed as up regulation of IMP3, U3 small nucleolar ribonucleoprotein gene expression at cytotoxic IC50 measured after 48 hrs relative to control
[9] = Inhibition of RTK/PI3K/AKT/mTOR signaling in human U87 cells assessed as up regulation of PRR36 gene expression at cytotoxic IC50 measured after 48 hrs relative to control
[10] = Inhibition of RTK/PI3K/AKT/mTOR signaling in human U87 cells assessed as up regulation of EEF1A1 gene expression at cytotoxic IC50 measured after 48 hrs relative to control
[11] = Inhibition of RTK/PI3K/AKT/mTOR signaling in human U87 cells assessed as down regulation of HIPK1 gene expression at cytotoxic IC50 measured after 48 hrs relative to control
[12] = Inhibition of RTK/PI3K/AKT/mTOR signaling in human U87 cells assessed as up regulation of LRP1 gene expression at cytotoxic IC50 measured after 48 hrs relative to control
[13] = Inhibition of RTK/PI3K/AKT/mTOR signaling in human U87 cells assessed as up regulation of CDK9 gene expression at cytotoxic IC50 measured after 48 hrs relative to control
[14] = Inhibition of RTK/PI3K/AKT/mTOR signaling in human U87 cells assessed as down regulation of NDEL1 gene expression at cytotoxic IC50 measured after 48 hrs relative to control
[15] = Inhibition of RTK/PI3K/AKT/mTOR signaling in human U87 cells assessed as down regulation of OAT gene expression at cytotoxic IC50 measured after 48 hrs relative to control
[16] = Inhibition of RTK/PI3K/AKT/mTOR signaling in human U87 cells assessed as up regulation of zinc finger MYND-type containing 8 gene expression at cytotoxic IC50 measured after 48 hrs relative to control
[17] = Inhibition of RTK/PI3K/AKT/mTOR signaling in human U87 cells assessed as up regulation of ubiquinol-cytochrome c reductase complex assembly factor 1 gene expression at cytotoxic IC50 measured after 48 hrs relative to control
[18] = Inhibition of RTK/PI3K/AKT/mTOR signaling in human U87 cells assessed as down regulation of PRMT9 gene expression at cytotoxic IC50 measured after 48 hrs relative to control
[19] = Inhibition of RTK/PI3K/AKT/mTOR signaling in human U87 cells assessed as up regulation of collagen type XVIII alpha 1 chain gene expression at cytotoxic IC50 measured after 48 hrs relative to control
[20] = Inhibition of RTK/PI3K/AKT/mTOR signaling in human U87 cells assessed as down regulation of UBL5 gene expression at cytotoxic IC50 measured after 48 hrs relative to control
[21] = Inhibition of RTK/PI3K/AKT/mTOR signaling in human U87 cells assessed as down regulation of STK17A gene expression at cytotoxic IC50 measured after 48 hrs relative to control
[22] = Inhibition of RTK/PI3K/AKT/mTOR signaling in human U87 cells assessed as up regulation of solute carrier family 20 member 2 gene expression at cytotoxic IC50 measured after 48 hrs relative to control
[23] = Inhibition of RTK/PI3K/AKT/mTOR signaling in human U87 cells assessed as down regulation of SLC36A1 gene expression at cytotoxic IC50 measured after 48 hrs relative to control
[24] = Inhibition of RTK/PI3K/AKT/mTOR signaling in human U87 cells assessed as up regulation of CYFIP2 gene expression at cytotoxic IC50 measured after 48 hrs relative to control
[25] = Inhibition of RTK/PI3K/AKT/mTOR signaling in human U87 cells assessed as down regulation of LRRC57 gene expression at cytotoxic IC50 measured after 48 hrs relative to control
[26] = Inhibition of RTK/PI3K/AKT/mTOR signaling in human U87 cells assessed as up regulation of PLPP2 gene expression at cytotoxic IC50 measured after 48 hrs relative to control
[27] = Inhibition of RTK/PI3K/AKT/mTOR signaling in human U87 cells assessed as down regulation of DDAH1 gene expression at cytotoxic IC50 measured after 48 hrs relative to control
[28] = Inhibition of RTK/PI3K/AKT/mTOR signaling in human U87 cells assessed as up regulation of basic helix-loop-helix family member e40 gene expression at cytotoxic IC50 measured after 48 hrs relative to control
[29] = Inhibition of RTK/PI3K/AKT/mTOR signaling in human U87 cells assessed as up regulation of fucosyltransferase 11 gene expression at cytotoxic IC50 measured after 48 hrs relative to control
[30] = Inhibition of RTK/PI3K/AKT/mTOR signaling in human U87 cells assessed as down regulation of CYTH3 gene expression at cytotoxic IC50 measured after 48 hrs relative to control
[31] = Inhibition of RTK/PI3K/AKT/mTOR signaling in human U87 cells assessed as up regulation of TSPAN5 gene expression at cytotoxic IC50 measured after 48 hrs relative to control
[32] = Inhibition of RTK/PI3K/AKT/mTOR signaling in human U87 cells assessed as down regulation of SKAP2 gene expression at cytotoxic IC50 measured after 48 hrs relative to control

**Q.** With `CC(=O)C(=NNc1ccccc1C#N)C(C)=O` as the compound, how does the log2FC [1] read?
**A.** 2.61

**Q.** What about the log2FC [2] of the same compound?
**A.** -0.583

**Q.** And the log2FC [3]?
**A.** 0.792

**Q.** What about the log2FC [4] of the same compound?
**A.** -0.973

**Q.** And the log2FC [5]?
**A.** -1.09

**Q.** What about the log2FC [6] of the same compound?
**A.** -1.16

**Q.** What about the log2FC [7] of the same compound?
**A.** 0.771

**Q.** And the log2FC [8]?
**A.** 1.04

**Q.** And the log2FC [9]?
**A.** 2.24

**Q.** What about the log2FC [10] of the same compound?
**A.** 0.546

**Q.** And the log2FC [11]?
**A.** -0.818

**Q.** What about the log2FC [12] of the same compound?
**A.** 2.48

**Q.** What about the log2FC [13] of the same compound?
**A.** 0.53

**Q.** And the log2FC [14]?
**A.** -0.637

**Q.** What about the log2FC [15] of the same compound?
**A.** -0.619

**Q.** What about the log2FC [16] of the same compound?
**A.** 1.07

**Q.** What about the log2FC [17] of the same compound?
**A.** 0.655

**Q.** And the log2FC [18]?
**A.** -0.884

**Q.** What about the log2FC [19] of the same compound?
**A.** 0.777

**Q.** And the log2FC [20]?
**A.** -0.866

**Q.** And the log2FC [21]?
**A.** -0.832

**Q.** And the log2FC [22]?
**A.** 0.779

**Q.** What about the log2FC [23] of the same compound?
**A.** -1.26

**Q.** And the log2FC [24]?
**A.** 0.588

**Q.** And the log2FC [25]?
**A.** -0.744

**Q.** What about the log2FC [26] of the same compound?
**A.** 1.72

**Q.** What about the log2FC [27] of the same compound?
**A.** -0.934

**Q.** What about the log2FC [28] of the same compound?
**A.** 0.671

**Q.** And the log2FC [29]?
**A.** 1.54

**Q.** And the log2FC [30]?
**A.** -0.507

**Q.** What about the log2FC [31] of the same compound?
**A.** 0.584

**Q.** What about the log2FC [32] of the same compound?
**A.** -0.605
